Data as given in PubChem BioAssay AID686943 (Drosophila RNAi Screening Center, 2013)

Aim: 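Knockdowns that increase or decrease active ERK after insulin receptor stimulation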 (primary screen)
System: Drosophila S2R+ haemocyte-like cells expressing YFP-tagged ERK (Rolled)
Reagent: long dsRNA against Drosophila genes
Challenge: insulin stimulation versus unstimulated cells; dose and duration not given
Read-out: 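Per-plate z-scores of phospho-ERK immunostaining normalised to YFP-tagged ERK, measured with and without insulin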
Scale: replicate 1, z-score of dpERK with insulin and replicate 2, z-score of dpERK with insulin: higher = more active ERK per ERK-YFP after insulin; replicate 1, z-score of dpERK under basal conditions: higher = more basal active ERK per ERK-YFP; replicate 1, z-score of ERK-YFP with insulin: higher = more YFP-tagged ERK signal
The deposit covers about 23,000 reagents; shown is a random part of those with a known target gene and a result. 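Extra replicates exist only for a retested subset of genes; insulin dose and duration not given; both raised and lowered dpERK matter.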 A plus sign joins genes that one reagent is predicted to hit. Reagent sequences are not shown. Not given: the amount of reagent, the time to read-out.

no.	Target gene	PubChem SID	replicate 1, z-score of dpERK with insulin	replicate 2, z-score of dpERK with insulin	replicate 1, z-score of dpERK under basal conditions	replicate 1, z-score of ERK-YFP with insulin
1	CG8850 (GeneID 36331)	SID104187079	-0.14	-0.91	-0.04	-0.19
2	Ptp61F (GeneID 38160)	SID104188475	-1.75	1.23	1.45	0.32
3	MED21 (GeneID 3354977)	SID104200724	0.63	0.73	2.37	-0.16
4	Cad86C (GeneID 41302)	SID104195379	0.75	0.54	-0.44	0.18
5	Cad86C (GeneID 41302)	SID104195403	-0.73	-0.08	0.11	0.71
6	ChLD3 (GeneID 35002)	SID104182432	0.82	-0.12	1.18	0.13
7	CG14609 (GeneID 40864)	SID104192345	-0.56	-1.12	-0.04	0.91
8	Eig71Ed (GeneID 39704)	SID104190943	0.91	0.58	-0.08	0.05
9	CG15130 (GeneID 35312)	SID104182222	-0.07	-1.14	-0.58	0.26
10	mRNA-cap (GeneID 32379)	SID104199581	2.14	3.13	-1.77	-3.29
11	CG31189 (GeneID 42487)	SID104195990	-0.32	-0.96	-0.47	-0.53
12	Ddr (GeneID 3346209)	SID104180714	0.38	0.05	-0.32	-0.49
13	Ddr (GeneID 3346209)	SID104180715	-0.28	0.41	0.79	-1.37
14	Ddr (GeneID 3346209)	SID104181942	-1.38	0.4	0.15	1.39
15	Ddr (GeneID 3346209)	SID104183021	-0.25	-0.87	-0.78	0.75
16	Ddr (GeneID 3346209)	SID104183022	0.04	0.88	-0.83	1.19
17	Ddr (GeneID 3346209)	SID104202177	0.69	0.4	0.77	-0.42
18	zye (GeneID 40255)	SID104191576	0.64	0.66	-0.27	0.03
19	Cyp6a2 (GeneID 35587)	SID104184806	-0.94	-0.19	-1.09	1.6
20	CG14778 (GeneID 31100)	SID104197745	1.61	0.32	1.19	-0.01
21	Gr68a (GeneID 39324)	SID104190595	0.99	0.06	-0.51	0.17
22	SrpRbeta (GeneID 47283)	SID104201353	0.01	1.17	0.78	-1.95
23	par-1 (GeneID 2768852)	SID104185584	-1.66	-2.43	-2.93	-1.55
24	par-1 (GeneID 2768852)	SID104185890	0.02	0.41	0.55	0.23
25	par-1 (GeneID 2768852)	SID104186408	-0.21	0.29	1.01	0.29
26	par-1 (GeneID 2768852)	SID104187452	-1.39	-1.27	-0.87	0.61
27	par-1 (GeneID 2768852)	SID104187453	-0.18	0.44	1.03	0.19
28	CG5913 (GeneID 43132)	SID104195708	0.73	0.05	0.02	-0.4
29	CG31259 (GeneID 41010)	SID104194158	-0.07	-0.02	0.31	-0.66
30	CG9967 (GeneID 33414)	SID104180534	-0.11	-0.09	-0.33	-0.14
31	CG14459 (GeneID 40476)	SID104191511	-6.15	-2.47	-2.4	-2.43
32	CG6428 (GeneID 31351)	SID104198194	-0.53	-0.1	-0.3	0.85
33	NC2beta (GeneID 34875)	SID104181687	0.07	-0.13	0.2	-0.8
34	Thor (GeneID 33569)	SID104180562	0.49	0.3	-0.57	0.05
35	CG13244 (GeneID 34940)	SID104201334	-0.05	0.68	-0.62	0.92
36	Ir94h (GeneID 42769)	SID104195024	-0.07	-0.23	0.7	0.29
37	tweek (GeneID 35026)	SID104182225	-0.44	-0.32	1.27	0.49
38	tweek (GeneID 35026)	SID104182226	-1.19	-0.67	-0.35	-0.14
39	tweek (GeneID 35026)	SID104182577	-0.54	0.83	-0.2	0.37
40	CG34430 (GeneID 5740489)	SID104186291	0.15	-0.02	0.21	0.4
41	CG13133 (GeneID 34342)	SID104182022	0.07	0.59	-0.94	1.38
42	Bub3 (GeneID 43490)	SID104193960	-0.28	-0.42	-0.47	0.38
43	Jon25Biii (GeneID 33706)	SID104182907	0.55	-0.33	-0.48	0.58
44	Ser12 (GeneID 33406)	SID104180578	0.48	-0.15	-0.52	0.49
45	Cht10 (GeneID 3355116)	SID104183558	0.52	0.07	0.28	-0.98
46	Cht10 (GeneID 3355116)	SID104183559	-0.02	-0.06	-0.27	-0.02
47	Cht10 (GeneID 3355116)	SID104183560	0.57	-0.12	-0.33	-0.17
48	Hers (GeneID 33000)	SID104199221	2.08	0.25	1.65	0.33
49	Hers (GeneID 33000)	SID104199468	-0.31	0.28	-0.32	0.26
50	Nelf-E (GeneID 38982)	SID104190359	0.21	0.48		0.54
51	Pcmt (GeneID 40668)	SID104192155	0.1	-0.33	1.52	-0.78
52	omd (GeneID 41674)	SID104196299	-1.93	-1.7	-0.62	-0.12
53	sordd2 + sordd1	SID104199928	0.33	0.23	0.83	-0.58
54	cuff (GeneID 36269)	SID104186107	0.28	-0.2	1.67	0.55
55	swaPsi (GeneID 3771807)	SID104201366	0.82	0.14	-0.58	1.83
56	Gpdh2 (GeneID 37672)	SID104184138	-0.23	-0.07	-0.64	0.18
57	nerfin-2 (GeneID 41235)	SID104194339	0.6	-0.12	0.2	0.37

Already shown: 7 of the entries above.
no.	Target gene	PubChem SID	replicate 1, z-score of dpERK with insulin	replicate 2, z-score of dpERK with insulin	replicate 1, z-score of dpERK under basal conditions	replicate 1, z-score of ERK-YFP with insulin
33	NC2beta (GeneID 34875)	SID104181687	0.07	-0.13	0.2	-0.8
34	Thor (GeneID 33569)	SID104180562	0.49	0.3	-0.57	0.05
35	CG13244 (GeneID 34940)	SID104201334	-0.05	0.68	-0.62	0.92
36	Ir94h (GeneID 42769)	SID104195024	-0.07	-0.23	0.7	0.29
37	tweek (GeneID 35026)	SID104182225	-0.44	-0.32	1.27	0.49
38	tweek (GeneID 35026)	SID104182226	-1.19	-0.67	-0.35	-0.14
39	tweek (GeneID 35026)	SID104182577	-0.54	0.83	-0.2	0.37
